# Among all 320,000 compounds or so, about 22,000 (6.9%) were called active. The inconclusive results got no clear call from the source; some entries with a clear call stand among them for comparison. Calls come from the whole dose curve; as a rule, active = well fitted inhibition curve with a large enough effect; inconclusive = small, poorly fitted or top-dose-only effect, or another doubt; inactive = no such curve, though single readings can be large or run the other way. A potency beside an inconclusive call is a rough fit, not a confirmed value.
# Test: Primary qHTS for delayed death inhibitors of the malarial parasite plastid, 96 hour incubation
# Details: P. falciparum luciferase reporter growth; series mostly up to 28.7 µM; activity change, negative = inhibition: at the top concentration
# Outline: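 Erythrocytes infected with luciferase-expressing P. falciparum were dispensed at 2% hematocrit and 0.05% parasitemia (final), then incubated with compounds 96 hours at 37 C in 5% CO2. Luminescence after detection reagent addition reported growth.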
# % is set by controls: 0 for no effect and ±100 for the full control effect; potency is the fitted concentration of half-maximal effect.
SMILES,"activity change, negative = inhibition",Potency
CCCCOc1ccc(/C(O)=C2/C(=O)C(=O)N(Cc3cccnc3)C2c2ccncc2)c(C)c1 (stereo not drawn),inactive: 14.6%,
CCN1C(=O)/C(=c2\o/c(=C3\C=Cc4ccccc4N3CC)c(=O)n2CC)SC1=S,inactive: 23.5%,
CCCCC(=O)Oc1c(S(=O)(=O)c2ccccc2)c(C)nn1C(C)(C)C,inactive: 9.42%,
CC1(NC(=S)N(CCO)CCO)CCS(=O)(=O)C1 (stereo not drawn),,"inconclusive: 13.1 µM [inhibitor, partial curve, poor fit]"
O=C(Nc1ccc(Cl)cc1)C(c1ccccc1)N(CCO)CCO (stereo not drawn),inactive: 36.6%,
Brc1cc2c(cc1/C=N/Nc1nc(N3CCCC3)nc(N3CCOCC3)n1)OCO2,,"inconclusive: 8.28 µM [inhibitor, single point]"
O=C(Nc1nnc(-c2ccccc2)o1)c1nc2ccccc2s1,inactive: 4.97%,
O=C(Nc1cccc([N+](=O)[O-])c1)C1C2CC/C=C\CCC21 (stereo not drawn),,"inconclusive: 18.5 µM [inhibitor, single point]"
Cc1ccc(C(=O)Nc2ncccc2C)cc1S(=O)(=O)N1CCOCC1,,"inconclusive: 7.38 µM [inhibitor, single point]"
O=C(Nc1cccc(Cl)c1N1CCCC1)c1ccc([N+](=O)[O-])o1,inactive: 13.7%,
CC(=O)CSc1nsc(SCC(C)=O)c1C#N,,"inconclusive: 11.7 µM [inhibitor, single point]"
CCOc1ccc(NC(=O)C(=O)NCC2CCCN2CC)cc1 (stereo not drawn),inactive: 51.6%,
O=S(=O)(c1ccccc1)N1N=C(c2ccc(Br)cc2)CC1c1ccco1 (stereo not drawn),,"inconclusive: 10.4 µM [inhibitor, single point]"
CCNC(=S)N/N=C/c1ccco1,,"inconclusive: 0.0047 µM [inhibitor, full curve, poor fit]"
c1ccc(-c2ccc(-c3nc(-c4ccccn4)no3)cc2)cc1,,"inconclusive: 20.8 µM [inhibitor, partial curve, poor fit]"
Clc1ccc(-c2nc3ccc(Cl)cn3c2CN2CCCCC2)cc1,,"inconclusive: 18.5 µM [inhibitor, single point]"
N#CC1(c2ccccc2)CCC(=NNS(=O)(=O)c2ccccc2)CC1 (stereo not drawn),inactive: -6.25%,
CCc1cc[n+](-c2nc3ccccc3nc2C(=C=[N-])C#N)cc1,,"inconclusive: 0.294 µM [inhibitor, full curve, poor fit]"
Cc1ccc(S(=O)(=O)N2CCCCC2)cc1NC(=O)[C@@H]1CCCN1C(=O)c1cccs1,,"inconclusive: 13.1 µM [inhibitor, single point]"
COc1ccc(C2=NN(C(=O)CCC(=O)O)C(c3ccccc3)C2)cc1 (stereo not drawn),,"inconclusive: 0.465 µM [inhibitor, full curve]"
CCCCCCCc1nn2c(=O)cc(O)nc2s1,,"inconclusive: 18.5 µM [inhibitor, single point]"
COc1ccc(NC(=O)C2CC(=O)N/C(=N/N=C/c3ccccc3)S2)cc1 (stereo not drawn),inactive: 11%,
CC(c1ccccc1)(c1ccccc1)c1ccncc1,,"inconclusive: 14.7 µM [inhibitor, partial curve, poor fit]"
CN(C(=O)C1CCCC1)C1CCS(=O)(=O)C1 (stereo not drawn),inactive: 1.57%,
CC(=O)Nc1ccc(OCCC[n+]2cccc(C(=O)[O-])c2)cc1,,"inconclusive: 10.4 µM [inhibitor, partial curve, poor fit]"

SMILES,"activity change, negative = inhibition",Potency
Cc1ccc(CS/C(Nc2ccccc2C)=C(\C#N)C(N)=O)c(C)c1,,"inconclusive: 0.828 µM [inhibitor, full curve]"
Cc1cc(C(=O)Nc2ccc(N3CCOCC3)c(Cl)c2)c(C)o1,inactive: 52.6%,
CCN(CC)c1ccc(NC(=O)C2CCC(CNc3c(N4CCCC4)c(=O)c3=O)CC2)c(C)c1 (stereo not drawn),,"inconclusive: 5.86 µM [inhibitor, partial curve]"
COc1ccc(C2c3c(oc4ccc(Cl)cc4c3=O)C(=O)N2Cc2ccco2)cc1OC (stereo not drawn),,"inconclusive: 10.4 µM [inhibitor, single point]"
COc1ccccc1NC(=O)CS(=O)(=O)c1cn(CC(=O)N2CCCC2)c2ccccc12,inactive: -15.9%,
Cc1ccc2[nH]c(=O)c(CN(Cc3ccco3)C(=O)N3CCOCC3)cc2c1,,"inconclusive: 16.5 µM [inhibitor, single point]"
CC(C)OC(=O)CCC(=O)Nc1ccc(F)cc1,,"inconclusive: 13.1 µM [inhibitor, partial curve]"
Brc1ccccc1OCCOCCOc1cccc2cccnc12,,"inconclusive: 4.15 µM [inhibitor, single point]"
c1coc(CN(Cc2ccco2)c2ncnc3c2oc2ccccc23)c1,,"inconclusive: 18.5 µM [inhibitor, single point]"
c1ccc(SSc2ccccc2)cc1,inactive: 6.7%,
O=C(CNc1cccc(F)c1)N1CCc2ccccc2C1,inactive: 115%,
Clc1ccc2nc3c(c(-c4ccccc4)c2c1)CNCC3,,active: 13.1 µM
O=c1ccc(-c2nc3cc(Cl)ccc3n2Cc2ccccc2)c[nH]1,,active: 9.28 µM
Nc1ccc2nc(CN3CCOCC3)[nH]c2c1,,"inconclusive: 20.8 µM [inhibitor, partial curve, poor fit]"
Cc1ccc2[nH]c(C)c(CC(=O)NCc3ccccc3)c2c1,,"inconclusive: 18.5 µM [inhibitor, single point]"
COCCN(CCOC)C(=O)C1CCCN(S(=O)(=O)c2ccc(NC(=O)OC)cc2)C1 (stereo not drawn),inactive: 0.235%,
CCc1noc(C)c1C(=O)Nc1cc(S(=O)(=O)N(CC)CC)ccc1N1CCOCC1,,"inconclusive: 4.65 µM [inhibitor, partial curve]"
CCOc1ccc(-c2nc(CSc3nncs3)cs2)cc1OC,,"inconclusive: 11.7 µM [inhibitor, partial curve]"
Cc1nn(-c2ccccc2)c(Cl)c1C(=O)Nc1ccccc1,,"inconclusive: 4.15 µM [inhibitor, partial curve, poor fit]"
Cc1ccc(N2C(=O)CC(Cc3ccc(Cl)cc3)C2=O)cc1 (stereo not drawn),inactive: -14.1%,
CN(C)S(=O)(=O)c1ccc(N2CCN(S(=O)(=O)c3ccc(F)cc3)CC2)c(Cl)c1,,active: 8.28 µM
COc1ccccc1OCC(=O)/C=C1/N(C)c2ccccc2C1(C)C,,"inconclusive: 14.7 µM [inhibitor, single point]"
O=C(COc1ccccc1)Nc1ccc(N2CCCCC2)cc1,inactive: 21%,
Cc1ccc(C(=O)CSc2ncn[nH]2)cc1,,"inconclusive: 1.65 µM [inhibitor, partial curve, poor fit]"
CC(=O)NCCn1ccc2ccccc21,,"inconclusive: 0.465 µM [inhibitor, partial curve]"

SMILES,"activity change, negative = inhibition",Potency
COc1cccc(CNc2nc(C(F)(F)F)nc3ccccc23)c1,,"inconclusive: 18.5 µM [inhibitor, single point]"
CC1CCCCN1CC(O)c1c[nH]c2ccccc12 (stereo not drawn),,"inconclusive: 10.4 µM [inhibitor, partial curve, poor fit]"
CCc1nnc(NC(=O)CSc2nnc(Cc3cccn3C)n2C)s1,,"inconclusive: 13.1 µM [inhibitor, partial curve, poor fit]"
COCCCNc1nc(N)c([N+](=O)[O-])c(N2CCCCCC2)n1,inactive: -81.6%,
CCc1c(C)nc2ncnn2c1N1CCC(C(=O)Nc2ccc(C)cc2)CC1,,active: 11.7 µM
Cn1c2ccccc2c(=O)c2c(=O)n(-c3ccccc3)c(C3CCCCC3)nc21,,active: 9.28 µM
COC(=O)c1cc(S(=O)(=O)NCC2CCN(Cc3ccccc3F)CC2)c[nH]1,inactive: 27.5%,
O=S(=O)(c1ccc(Br)cc1)N1CCN=C1SCc1cccc(F)c1,inactive: -14.1%,
CCOC(=O)C(C)n1cnc2scc(-c3ccc(C)c(C)c3)c2c1=O (stereo not drawn),inactive: -3.94%,
CC1CCCC(NC(=O)CSc2ccc(F)cc2)C1C (stereo not drawn),inactive: 6.5%,
CN=C1c2ccccc2CN1c1cccc(C(=O)OC)c1,,"inconclusive: 0.586 µM [inhibitor, full curve, poor fit]"
Cc1cc(NC(=O)c2ccc3c(c2)C(=O)N(C(C)(C)C)C3=O)no1,,"inconclusive: 6.57 µM [inhibitor, partial curve]"
COc1ccc(-c2noc(CNC(=O)CCN3C(=O)[C@H]4CC=CC[C@H]4C3=O)n2)cc1,,active: 11.7 µM
COc1ccc(C(=O)NC(=S)Nc2ccc(N3CCCC3)cc2)cc1OC,inactive: -18.8%,
O=C(O)c1ccc(S(=O)(=O)N2CCSCC2)cc1,,"inconclusive: 16.5 µM [inhibitor, partial curve, poor fit]"
Cc1ccc(C2(CCNCc3ccco3)CCOC(C(C)C)C2)cc1 (stereo not drawn),,"inconclusive: 18.5 µM [inhibitor, single point]"
COc1ccccc1NC(=S)NCc1ccc(S(N)(=O)=O)cc1,,"inconclusive: 18.5 µM [inhibitor, single point]"
Cc1nc2ccc(NC(=O)c3ccc(C)c(S(=O)(=O)N4CCOCC4)c3)cc2s1,,"inconclusive: 11.7 µM [inhibitor, partial curve, poor fit]"
O=C(COC(=O)CSc1ccc2ccccc2c1)NC1CCCC1,,"inconclusive: 9.28 µM [inhibitor, partial curve, poor fit]"
COC(=O)c1ccc(NC(=O)c2cn(-c3ccccc3)nc2-c2ccncc2)cc1,,"inconclusive: 20.8 µM [inhibitor, single point]"
CCOc1cc(N2CCOCC2)c(OCC)cc1NC(C)C(=O)N1CCC(C)CC1 (stereo not drawn),,"inconclusive: 13.1 µM [inhibitor, single point]"
CCOC(=O)/C(C#N)=N/Nc1c(C)n(C)n(-c2ccccc2)c1=O,,"inconclusive: 0.465 µM [inhibitor, partial curve, poor fit]"
CC(C)(CCl)C(=O)Nc1ccc(OC(F)(F)F)cc1,inactive: 1.05%,

# Compounds shown so far that have a thiophene ring, fused or not, in the order listed:
SMILES,"activity change, negative = inhibition",Potency
Cc1ccc(S(=O)(=O)N2CCCCC2)cc1NC(=O)[C@@H]1CCCN1C(=O)c1cccs1,,"inconclusive: 13.1 µM [inhibitor, single point]"
CCOC(=O)C(C)n1cnc2scc(-c3ccc(C)c(C)c3)c2c1=O (stereo not drawn),inactive: -3.94%,
